Results: PubChem BioAssay AID2585 (National Center for Advancing Translational Sciences (NCATS), 2010)
Inconclusive means that the source gave no clear call. Such entries were picked first, then a sample of the others. A potency beside an inconclusive call is a rough fit, not a confirmed value. Calls of active or inactive are those of the source. Calls come from the whole dose curve; as a rule, active = well fitted inhibition curve with a large enough effect; inconclusive = small, poorly fitted or top-dose-only effect; inactive = no such curve, though single readings can be large or run the other way.

Sequences of proteins named here, by UniProt entry; tags and fusion partners are left off. A change or cut given only in a name is not applied to a line headed by its entry.
UniProt P54132: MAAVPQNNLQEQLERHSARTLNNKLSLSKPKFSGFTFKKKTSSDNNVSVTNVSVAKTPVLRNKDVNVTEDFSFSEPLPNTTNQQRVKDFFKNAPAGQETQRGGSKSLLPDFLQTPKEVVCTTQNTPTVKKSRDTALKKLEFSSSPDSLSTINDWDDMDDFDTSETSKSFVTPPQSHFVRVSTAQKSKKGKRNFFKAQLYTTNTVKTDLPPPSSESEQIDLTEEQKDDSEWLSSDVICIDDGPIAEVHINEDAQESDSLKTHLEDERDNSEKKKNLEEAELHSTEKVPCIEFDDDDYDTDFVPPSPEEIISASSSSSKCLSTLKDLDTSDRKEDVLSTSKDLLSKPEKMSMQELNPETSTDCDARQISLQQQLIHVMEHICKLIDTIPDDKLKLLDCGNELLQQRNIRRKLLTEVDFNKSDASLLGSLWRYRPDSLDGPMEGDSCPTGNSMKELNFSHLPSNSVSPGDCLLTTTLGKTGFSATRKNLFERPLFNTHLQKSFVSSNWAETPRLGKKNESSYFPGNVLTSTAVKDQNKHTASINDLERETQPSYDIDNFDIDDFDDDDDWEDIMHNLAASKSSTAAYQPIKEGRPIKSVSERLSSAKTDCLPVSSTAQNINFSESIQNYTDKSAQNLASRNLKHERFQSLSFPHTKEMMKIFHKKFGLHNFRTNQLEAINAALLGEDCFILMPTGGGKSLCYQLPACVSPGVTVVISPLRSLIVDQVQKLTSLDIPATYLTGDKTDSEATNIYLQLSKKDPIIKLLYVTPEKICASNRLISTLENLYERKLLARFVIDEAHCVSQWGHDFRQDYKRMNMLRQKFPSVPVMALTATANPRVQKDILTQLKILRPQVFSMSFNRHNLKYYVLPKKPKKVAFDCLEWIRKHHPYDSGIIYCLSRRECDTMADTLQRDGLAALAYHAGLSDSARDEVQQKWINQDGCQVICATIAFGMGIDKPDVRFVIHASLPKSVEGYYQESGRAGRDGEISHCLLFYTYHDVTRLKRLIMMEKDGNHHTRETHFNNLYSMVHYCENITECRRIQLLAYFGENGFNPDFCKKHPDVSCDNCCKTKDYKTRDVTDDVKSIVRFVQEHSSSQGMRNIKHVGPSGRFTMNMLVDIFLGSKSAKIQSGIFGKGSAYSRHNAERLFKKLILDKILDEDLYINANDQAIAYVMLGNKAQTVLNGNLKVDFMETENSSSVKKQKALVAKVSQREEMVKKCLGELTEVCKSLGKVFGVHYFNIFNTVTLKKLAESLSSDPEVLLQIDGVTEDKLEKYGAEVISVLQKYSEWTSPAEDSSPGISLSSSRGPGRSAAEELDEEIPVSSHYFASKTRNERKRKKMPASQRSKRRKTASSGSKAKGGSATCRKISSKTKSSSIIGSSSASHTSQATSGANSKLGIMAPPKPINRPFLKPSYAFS

target: RecQ-like DNA helicase BLM (Homo sapiens) (UniProt P54132); experiment: qHTS Confirmation Assay for Inhibitors of Bloom's syndrome helicase (BLM); settings: BLM DNA unwinding, fluorescence quenching, biochemical; note: nearly all actives have a fitted effect of over 45% in size
In short: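 Fluorescence dequenching read-out (ex 525/em 598 nm) at two time points 2 h apart, room temperature. Substrate: 200 nM forked 20-bp duplex with 30-nt tails, TAMRA/BHQ-2 labelled, plus 2 mM ATP. Enzyme: 50 nM BLM; enzyme-free and DMSO controls for normalization.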
% is set by controls: 0 for no effect and ±100 for the full control effect; potency is the fitted concentration of half-maximal effect.

Structure (SMILES)	max response, negative = inhibition	Potency
O=C(/C=C\c1ccco1)c1ccc(NC(=O)c2ccco2)cc1	inactive: -5.96%	
CCCN(C(=O)c1cc2c(s1)CCC2)c1c(N)n(Cc2ccccc2)c(=O)[nH]c1=O		inconclusive: 7.25 µM [inhibitor, partial curve]
COc1ccccc1-n1cnc2c(c1=O)c1nc3ccccc3nc1n2-c1ccc(C)cc1	inactive: -0.888%	
O=C(NCc1ccco1)c1c2c(nc3ccccc13)CCC2		inconclusive: 18.2 µM [inhibitor, partial curve]
Cc1ccc(SCc2cc(=O)c3c(=O)n(-c4ccccc4)[nH]c3[nH]2)cc1	inactive: 4.85%	
COC(=O)c1ccc(COc2ccc(/C=C(\C#N)c3nc4ccccc4[nH]3)cc2OC)o1		inconclusive: 10.2 µM [inhibitor, partial curve]
CN(C)c1ccc(/C=C/c2ccc3c4ccccc4ccc3[n+]2-c2ccccc2)cc1		active: 68 µM
NC(=O)CC1Nc2cccc3cccc(c23)NC1=O (configuration not stated)	inactive: -8.69%	
Cc1[nH]c2ccccc2c1/C=N/NC(=O)c1cccc([N+](=O)[O-])c1		inconclusive: 21.5 µM [inhibitor, partial curve, poor fit]
CCCCn1c(=O)[nH]c2nc3cc(N)ccc3nc2c1=O		inconclusive: 28.9 µM [inhibitor, single point]
O=C(Cc1cccs1)Nc1ccc(S(=O)(=O)N2CCCC2)cc1		inconclusive: 20.4 µM [inhibitor, partial curve]
Cn1c(SCC(=O)c2cc(Cl)c(Cl)s2)nnc1-c1ccco1		inconclusive: 12.9 µM [inhibitor, single point]
Cc1c(C(=O)OCC2CCCO2)[nH]c2c1C(=O)CC(c1ccco1)C2 (configuration not stated)		active: 18.2 µM
CC(C)(O)c1ccccc1CC[C@H](SCC1(CC(=O)O)CC1)c1cccc(/C=C/c2ccc3ccc(Cl)cc3n2)c1		active: 54.1 µM
COc1ccc2c(c1)Cc1sc(NC(=O)c3cccnc3)nc1-2		inconclusive: 11.5 µM [inhibitor, partial curve]
O=C(O)CSc1cc(C(=O)c2ccccc2O)cn2c(=O)c3c4c(sc3nc12)CCCC4		active: 32.4 µM

Structure (SMILES)	max response, negative = inhibition	Potency
O=C(COc1ccc([N+](=O)[O-])cc1)Nc1nnc(-c2cccnc2)s1		inconclusive: 7.25 µM [inhibitor, full curve]
O=C(O)CSc1cc(C(=O)c2ccccc2O)cn2c(=O)c3c(-c4ccccc4)csc3nc12		inconclusive: 36.3 µM [inhibitor, partial curve]
Oc1ccc([C@@H]2CNCCc3c2cc(O)c(O)c3Cl)cc1		inconclusive: 45.7 µM [inhibitor, single point]
O=C(O)c1ccc(S(=O)(=O)/N=C2\C=C(Nc3ccccc3F)C(=O)c3ccccc32)cc1		active: 16.2 µM
O=C(CSc1ccccn1)Nc1ccc2c(c1)C(=O)c1ccccc1C2=O		inconclusive: 45.7 µM [inhibitor, single point]
CC(C)=CCOc1ccc(/C=C/C(=O)c2ccc(OCC=C(C)C)cc2OCC(=O)O)cc1		inconclusive: 36.3 µM [inhibitor, single point]
COc1cccc(OC)c1-c1nn2c(-c3cc(-c4ccccc4)n[nH]3)nnc2s1		inconclusive: 7.25 µM [inhibitor, full curve]
COc1ccccc1CNC(=O)/C=C/c1ccc(Br)o1	inactive: -11%	
Cc1ccc(-c2nc3c(c(SCC(=O)Nc4cccc(C(=O)O)c4)n2)Cc2cccc(C)c2O3)cc1		active: 13.6 µM
C=C(c1ccc(C(=O)O)cc1)c1cc2c(cc1C)C(C)(C)CCC2(C)C		active: 68 µM
CCc1cc(=O)oc2cc(C)c(CN3CCCC3)c(O)c12		inconclusive: 10.2 µM [inhibitor, partial curve]
O=C(COC(=O)c1cc2c(s1)CCC2)Nc1ccc(F)cc1		inconclusive: 6.46 µM [inhibitor, partial curve]
Cc1ccccc1Nc1cc2ccccc2c(=O)[nH]1		inconclusive: 32.4 µM [inhibitor, partial curve, poor fit]
COc1ccc(-c2nc3c(c(SCC(=O)Nc4ccc(C(=O)O)cc4)n2)Cc2ccccc2O3)cc1		active: 5.13 µM
Cc1ccc(NC2=CC(=O)c3sc(C)nc3C2=O)cc1		active: 20.4 µM
CCCc1nc2ccccc2c(=O)n1-c1ccc(C(=O)OCC)cc1	inactive: -5.9%	

2 compounds picked at random from the list so far, as already listed:
Structure (SMILES)	max response, negative = inhibition	Potency
O=C(COC(=O)c1cc2c(s1)CCC2)Nc1ccc(F)cc1		inconclusive: 6.46 µM [inhibitor, partial curve]
COc1ccc2c(c1)Cc1sc(NC(=O)c3cccnc3)nc1-2		inconclusive: 11.5 µM [inhibitor, partial curve]
